Measurements reported in the supplement of paper PMC12889115.
Some of the results follow. These are raw signals, not scaled to a control.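 Primary screen: polymyxin B was added at a level permeabilizing Salmonella outer membranes while sparing inner membranes. DMSO wells, both with and without polymyxin B, established maximum growth. Plate-to-plate variation meant each plate was ranked on its own, and the lowest-OD600 compounds were selected as hits.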

Test system: Salmonella enterica serovar Typhimurium SL1344
Assay: bacterial growth OD600 after 18 h with compound and polymyxin B; higher = more bacterial growth (less inhibition)
Settings: 50 µM, Mueller-Hinton broth

## COc1ccc(CCN2CCC(CN(C)Cc3cc(OC)ccc3F)CC2)cc1
Polymyxin B 1 µg/mL
  bacterial growth OD600: 0.951

## COc1ccc2c(c1)C=C(CNC1CCCc3nc(N(C)C)ncc31)CO2 (stereo unspecified)
Polymyxin B 0.75 µg/mL
  bacterial growth OD600: 0.668

## O=C(NCC1CCCN(C(=O)CCn2cnnn2)C1)c1ccc(-c2ccccc2)cc1 (stereo unspecified)
Polymyxin B 1 µg/mL
  bacterial growth OD600: 0.891

## COc1cccc(-c2nc3ccc(C(=O)N(C)Cc4c(C)n[nH]c4C)cc3o2)c1
Polymyxin B 0.75 µg/mL
  bacterial growth OD600: 0.004

## CCC1C(=O)NCCN1Cc1ccc2c(c1)CN(Cc1ccc(OC)c(C)c1)CCO2 (stereo unspecified)
Polymyxin B 0.75 µg/mL
  bacterial growth OD600: 0.846

## COC(=O)[C@@H](NC(=O)CCC1(Cc2ccc(OC)cc2F)CCC(=O)N1)C(C)C (stereo partly specified)
Polymyxin B 0.75 µg/mL
  bacterial growth OD600: 0.842

## Cc1ccc(F)cc1CNC(=O)CCC1(Cc2ccc(Cl)cc2)CCC(=O)N1 (stereo unspecified)
Polymyxin B 0.75 µg/mL
  bacterial growth OD600: 0.783

## CCOc1ccc2nc(N3CCC(NC(Cn4cccn4)c4ccccc4)CC3)nc(C)c2c1 (stereo unspecified)
Polymyxin B 0.75 µg/mL
  bacterial growth OD600: 0

## O=C(NC1CCCC1)c1ccc(N2CCC(NCc3cccc(F)c3F)CC2)cc1
Polymyxin B 0.75 µg/mL
  bacterial growth OD600: 0.013

## COc1ccc(Cc2nc3ccc(C(=O)NCC4CCCCO4)cc3o2)cc1 (stereo unspecified)
Polymyxin B 0.75 µg/mL
  bacterial growth OD600: 0.546

## COc1ccc(CCN2CCC(CN(C)C(=O)c3ccc(Cl)cc3F)CC2)cc1
Polymyxin B 1 µg/mL
  bacterial growth OD600: 0.834

## O=C(CCC1(Cc2cccc3ccccc23)CCC(=O)N1)NCCc1ccccn1 (stereo unspecified)
Polymyxin B 0.75 µg/mL
  bacterial growth OD600: 0.798

## COc1ccc(C(CC(=O)N(C)Cc2nc(C)c[nH]2)c2ccccc2)cc1 (stereo unspecified)
Polymyxin B 1 µg/mL
  bacterial growth OD600: 0.702

## Cc1ccccc1-c1cnnc(NC(C)Cc2ncccc2C)n1 (stereo unspecified)
Polymyxin B 1 µg/mL
  bacterial growth OD600: 0.862

## CC(Cc1ccsc1)NC(=O)C1CC(=O)c2sc(NC(=O)c3c(F)cccc3Cl)nc2C1 (stereo unspecified)
Polymyxin B 0.75 µg/mL
  bacterial growth OD600: 0.91

## CN(CC1CCCN(CCc2ccccc2F)C1)C(=O)Cn1cc2ccccc2n1 (stereo unspecified)
Polymyxin B 1 µg/mL
  bacterial growth OD600: 0.888

## CC(C)N(C)Cc1nnnn1CC(=O)N(C)CCc1nc2ccccc2[nH]1
Polymyxin B 0.75 µg/mL
  bacterial growth OD600: 0.801

## OCCC1CN(Cc2cccc3c2OCO3)CCN1Cc1ccccc1F (stereo unspecified)
Polymyxin B 1 µg/mL
  bacterial growth OD600: 0.903

## C/C(=C\c1ccccc1)CNC1CCCc2nc(N3CCC(CO)CC3)ncc21 (stereo unspecified)
Polymyxin B 0.75 µg/mL
  bacterial growth OD600: 0.712

## Cc1nc(N(C)C2CCCCC2)ncc1C(C)NCc1nc2ccccc2[nH]1 (stereo unspecified)
Polymyxin B 0.75 µg/mL
  bacterial growth OD600: 0.029

## O=C(c1ncccc1O)N1CCC(C2CCN(Cc3cccc(F)c3F)CC2)C1 (stereo unspecified)
Polymyxin B 0.75 µg/mL
  bacterial growth OD600: 0.903

## CN(C)c1ncc2c(n1)CCCC2NC(=O)CCN1CCCCCC1=O (stereo unspecified)
Polymyxin B 1 µg/mL
  bacterial growth OD600: 0.891

## O=C(Nc1ccccc1Oc1cccnc1)C1CCCN1CC1CCCC1 (stereo unspecified)
Polymyxin B 0.75 µg/mL
  bacterial growth OD600: 0.009

## CCOC(=O)C1(Cc2cccc(OC)c2)CCN(Cc2ccc(C)o2)CC1
Polymyxin B 1 µg/mL
  bacterial growth OD600: 0.937

## COCCN(C(=O)c1csc2nc(-c3ccc(OC)c(F)c3)cn12)C(C)C
Polymyxin B 0.75 µg/mL
  bacterial growth OD600: 0.793

## COc1ccc(OC2CCN(C(=O)C3CC3)CC2)c(C(=O)N2CC[C@@H]3CCCC[C@H]3C2)c1
Polymyxin B 1 µg/mL
  bacterial growth OD600: 0.736

## COc1ccc(C(=O)NC2CC2)c(OC2CCN(Cc3nc4ccccc4n3C)CC2)c1
Polymyxin B 1 µg/mL
  bacterial growth OD600: 0.945

## Cn1cc(CN2CCCC2C(=O)Nc2ccc(-c3nc4ccccc4[nH]3)cc2)cn1 (stereo unspecified)
Polymyxin B 1 µg/mL
  bacterial growth OD600: 1.01

## COCc1ccc(C(=O)NCc2c(C)ncc3c2CCN(C(=O)c2cc4ccccc4[nH]2)C3)o1
Polymyxin B 0.75 µg/mL
  bacterial growth OD600: 0.833

## O=C(NC1CC(=O)N(CCCc2ccccc2)C1)c1ccc2c(c1)OCO2 (stereo unspecified)
Polymyxin B 1 µg/mL
  bacterial growth OD600: 0.9

## CCC1(CCC(=O)NC(c2ccccc2)c2ccc(Cl)cc2)CCC(=O)N1 (stereo unspecified)
Polymyxin B 0.75 µg/mL
  bacterial growth OD600: 0.791
